We go through 64 compounds from PubChem BioAssay AID493014 (National Center for Advancing Translational Sciences (NCATS), 2011).

The experiment can be described thus: qHTS Assay to Find Inhibitors of Chronic Active B-Cell Receptor Signaling. The conditions noted are these: ABC-DLBCL IkBa-CBG/CBR reporter, luminescence ratio (green luciferase fused to IkBa over red control in TMD8 lymphoma cells), 4 h. In a few lines: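 Concentration-response series (up to 46 uM) were applied to TMD8 dual-reporter cells for 4 h at 37C with doxycycline. Green/red ratio, after filter-overlap correction, defined %Activity; red signal alone was normalised to basal cells and zero luminescence.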

[1] abbreviates: measured here: CBR red luminescence, cell number.

Some of the results follow. Further columns of the screen follow, without active or inactive calls. The list favours compounds with an active or inconclusive main result. The note in brackets gives the kind of curve behind each potency; many fits are weak.

The AC50 is the midpoint of the concentration-response curve, whichever way the signal moves. As for `COc1ccccc1NC(=O)CN(c1ccc(C)cc1)S(=O)(=O)c1c(C)n[nH]c1C`, under setting [1], the AC50 is 17.8 µM [falling, partial curve, poor fit].

As for `Cc1oc2c(c1C(=O)NCCO)CCCC2`, under setting [1], the AC50 was 29.1 µM [falling, single point].

For `CC(C)Cc1ccc(C(C)C(=O)Nc2ccc(O)cc2)cc1` (stereo not given), the AC50 under setting [1] was 2.82 µM [falling, partial curve, poor fit].

Consider `COC(=O)c1c(NC(=O)C2CCCO2)sc2c1CCC2` (stereo not given), for which, under setting [1], the AC50 is 23.1 µM [rising, single point].

For the compound `CCc1ccc(C(=O)NNc2ccccc2F)cc1`, the half-maximal activity concentration (AC50) under setting [1] is 35.5 µM [falling, partial curve, poor fit].

With `CC(=O)Nc1ccc(N2CCN(C(C)=O)CC2)cc1`, under setting [1], the concentration at half-maximal activity (AC50) was 3.55 µM [rising, full curve].

In the case of `COc1ccc2c(c1)c(CC(=O)OCC(=O)O)c(C)n2C(=O)c1ccc(Cl)cc1`, under setting [1], the AC50 is 2 µM [falling, full curve].

With `CC(=O)Nc1ccc(NC(=O)c2nc(S(=O)(=O)Cc3ccccc3)ncc2Cl)cc1`, the AC50 under setting [1] was 3.16 µM [falling, full curve].

Regarding `N=c1c(S(=O)(=O)c2ccc(Br)cc2)cc2c(=O)n3ccccc3nc2n1C1CCCCC1`, under setting [1], the AC50 was 7.94 µM [rising, partial curve, poor fit].

`Cc1ccc(C(=O)N/C(=C\c2ccc(-c3cccc([N+](=O)[O-])c3)o2)C(=O)NCCCN2CCOCC2)cc1`: the AC50 under setting [1] is 12.6 µM [falling, partial curve, poor fit].

Regarding `CCN(C(=O)c1nn(-c2ccc(OC)cc2)c(=O)c2c1c1ccccc1n2C)c1ccc(OC)cc1`, the AC50 under setting [1] is 0.562 µM [rising, full curve, poor fit].

As to `O=c1c2c(-c3cccs3)csc2ncn1-c1ccc(Br)cc1`, the AC50 under setting [1] is 6.31 µM [rising, single point].

As for `O=C(Nc1ccccc1)c1cccnc1N1CCOCC1`, the half-maximal activity concentration (AC50) under setting [1] was 0.82 µM [rising, full curve, poor fit].

On to `Cc1csc(NC(=S)NC(=O)c2ccccc2)n1`, for which the AC50 is 12.6 µM [falling, partial curve] under setting [1] and 12.6 µM [falling, partial curve] (measured here: IkBa-CBG green luminescence).

With `COCCCn1c(=S)[nH]c2ccc(N3CCOCC3)cc2c1=O`, the concentration at half-maximal activity (AC50) under setting [1] was 2.06 µM [falling, partial curve, poor fit].

In the case of `CCC(C)Nc1nc(N)c([N+](=O)[O-])c(NCCO)n1` (stereo not given), the AC50 under setting [1] is 22.4 µM [rising, single point].

Regarding `CCN(CC(=O)NC1CCCC1)S(=O)(=O)c1ccc(F)cc1`, the AC50 under setting [1] was 0.112 µM [rising, full curve, poor fit].

Consider `O=C1CSC(c2cccc([N+](=O)[O-])c2)N1c1ccccc1` (stereo not given), for which, under setting [1], the half-maximal activity concentration (AC50) is 0.112 µM [falling, full curve, poor fit].

As for `CCCCn1c(N)c(N(CC(C)C)C(=O)c2cc3c(s2)CCCCC3)c(=O)[nH]c1=O`, the AC50 under setting [1] was 6.51 µM [rising, single point].

As for `COc1cccc(-c2nc(-c3ccccc3)c(-c3ccccc3)[nH]2)c1OCC(=O)O`, the concentration at half-maximal activity (AC50) under setting [1] was 17.8 µM [falling, partial curve, poor fit].

As for `Cc1ccc(Nc2c([N+](=O)[O-])c(=O)n(C)c3ccccc23)cc1C`, under setting [1], the AC50 was 9.2 µM [falling, partial curve].

With `O=C(CCc1nnc(CCCCc2ccccc2)o1)NCCN1CCOC1=O`, the half-maximal activity concentration (AC50) under setting [1] is 5.01 µM [rising, partial curve, poor fit].

`CC(C)C(=O)Nc1cccc(NC(=S)NC(=O)c2cccs2)c1`: the half-maximal activity concentration (AC50) under setting [1] was 1.58 µM [falling, partial curve, poor fit].

For `COCCCN(C(=O)Nc1cccc(Cl)c1)C(C)c1ccccn1` (stereo not given), the AC50 under setting [1] was 14.6 µM [rising, partial curve].

Turning to `O=C(NC1CCN(C(=O)Nc2cccc(Cl)c2)CC1)c1ccccc1`, the AC50 under setting [1] is 3.55 µM [rising, single point].

Take `O=C1CC(Nc2ccc(N3CCOCC3)cc2)C(=O)N1c1ccccc1F` (stereo not given): under setting [1], the AC50 was 23.1 µM [falling, single point].

On to `COc1ccc(Cl)cc1NC(=S)NCc1ccc(S(N)(=O)=O)cc1`, for which the concentration at half-maximal activity (AC50) under setting [1] is 20.6 µM [falling, partial curve, poor fit].

As to `CCC(=O)c1cc(F)ccc1OCC(=O)Nc1ccc2c(c1)OCCO2`, under setting [1], the concentration at half-maximal activity (AC50) is 29.1 µM [rising, single point].

For the compound `Cn1c(=O)n(C)c2cc(N3CCCCC3)c(NC(=O)c3cccc(Cl)c3)cc21`, the AC50 under setting [1] is 20 µM [rising, partial curve, poor fit].

Turning to `Cc1ccc(C2=NN(C(=O)c3ccco3)C(O)(C(F)(F)F)C2)cc1` (stereo not given), the AC50 under setting [1] is 0.112 µM [rising, full curve, poor fit].

As to `CNc1nc(NN)nc(Nc2ccccc2)n1`, the concentration at half-maximal activity (AC50) under setting [1] was 15.8 µM [falling, single point].

Regarding `COC(=O)[C@@H]1CC[C@H](C)[C@@H](c2ccc(C)cc2)N1C(=O)c1ccc(/C=N/O[C@@H](C)c2cn([C@H](CO)Cc3ccccc3)nn2)cc1`, the AC50 under setting [1] is 13 µM [falling, partial curve].

For `COc1nn(-c2ccccc2)c(=O)c(Cl)c1Cl`, the AC50 under setting [1] was 22.4 µM [falling, single point].

With `C=CCc1ccc(OCC(O)CN2CCN(Cc3ccc(Cl)cc3)CC2)c(OC)c1` (stereo not given), the half-maximal activity concentration (AC50) under setting [1] was 32.6 µM [falling, single point].

For `O=C(CN1C(=O)S/C(=C\c2ccccc2)C1=O)NC1CCS(=O)(=O)C1` (stereo not given), under setting [1], the AC50 was 10 µM [falling, single point].

Regarding `Cc1ccc(-c2onc3ccc(Cl)cc23)cc1`, the concentration at half-maximal activity (AC50) under setting [1] was 23.1 µM [rising, single point].

As for `O=C(O)CCc1nc(-c2ccc(Cl)cc2)no1`, the AC50 under setting [1] was 7.08 µM [falling, full curve, poor fit].

Take `O=C(CSc1nccn1Cc1ccccc1)NCc1ccccc1`: under setting [1], the AC50 was 10.3 µM [rising, partial curve, poor fit].

Regarding `CCOC(=O)C1CCN(C(=O)C2(NC(=O)Nc3ccc(F)cc3F)CCCCC2)CC1`, the concentration at half-maximal activity (AC50) under setting [1] was 3.55 µM [rising, single point].

As for `Cc1ccc(Cn2ccc(=O)c(OCc3c(Cl)cccc3Cl)c2C)cc1`, under setting [1], the concentration at half-maximal activity (AC50) was 20.6 µM [falling, single point].

As to `N#Cc1ccc(N2Cc3ccccc3/C2=N/C(=O)Nc2ccc(Cl)cc2)cc1`, the AC50 under setting [1] was 5.17 µM [rising, partial curve, poor fit].

Regarding `Cc1cccc(C(=O)Nc2nnc(COc3ccccc3)s2)c1`, the AC50 under setting [1] was 22.4 µM [falling, partial curve, poor fit].

For `O=c1c2ccccc2[nH]c(=S)n1CCN1CCC(=C(c2ccc(F)cc2)c2ccc(F)cc2)CC1`, the AC50 under setting [1] was 23.1 µM [rising, single point].

For `COc1ccc(-c2[nH]ncc2CN2CCCC(C(=O)c3ccc(OC)cc3OC)C2)cc1` (stereo not given), the concentration at half-maximal activity (AC50) under setting [1] was 3.98 µM [falling, single point].

For `Nc1c(S(=O)(=O)c2cccs2)c2nc3ccccc3nc2n1Cc1ccc2c(c1)OCO2`, the AC50 under setting [1] is 4.47 µM [falling, partial curve, poor fit].

In the case of `COC(=O)c1ccc(COC(=O)c2ccccc2OC)cc1`, the AC50 under setting [1] is 2.06 µM [rising, partial curve].

For `Cc1cc(C(=O)Nc2ccc(Cl)cc2)n(-c2ccccc2)n1`, under setting [1], the AC50 was 12.6 µM [falling, partial curve].

With `OCCNCCNCc1ccc(-c2ccccc2)cc1`, the AC50 under setting [1] is 35.5 µM [falling, single point].

Turning to `O=c1[nH]c2ccccc2n1CCCN1CCCCC1`, the AC50 under setting [1] is 10 µM [falling, partial curve, poor fit].

As to `Cc1ccnc(SCC(=O)c2ccc([N+](=O)[O-])cc2)n1`, the AC50 under setting [1] was 2.06 µM [rising, partial curve].

Consider `COc1ccc(C(=O)/C=C/N2CCCCC2)cc1OC`, for which the AC50 under setting [1] is 1.12 µM [rising, full curve, poor fit].

Turning to `Cc1ccc(C)c(NS(=O)(=O)c2ccc(NC(=O)CSc3ccc(Cl)cc3)cc2)c1`, the AC50 under setting [1] was 0.651 µM [rising, full curve].

Turning to `Cc1ccccc1C(=O)N1CCN(c2ccc(NC(=O)c3ccc([N+](=O)[O-])o3)cc2)CC1`, the AC50 under setting [1] was 6.31 µM [falling, single point].

Regarding `O=C1c2ccccc2C(=O)N1CNc1ccccc1`, under setting [1], the AC50 is 0.116 µM [falling, full curve, poor fit].

Turning to `COc1cc(C(=O)NCCSc2ccc(Cl)cc2)cc(OC)c1OC`, the AC50 under setting [1] was 3.16 µM [falling, single point].

As for `Cc1ccsc1/C=N\Nc1cn[nH]c(=O)c1Cl`, the AC50 under setting [1] is 14.1 µM [falling, partial curve].

Consider `COc1cc(C)ccc1OCCOc1c(C)cc(Cl)cc1Cl`, for which the concentration at half-maximal activity (AC50) under setting [1] is 4.11 µM [rising, full curve, poor fit].

Take `CCCNC(=O)c1ccc2c(c1)nc(C)n2-c1cccc(Cl)c1`: the concentration at half-maximal activity (AC50) under setting [1] was 35.5 µM [rising, single point].

With `CN(C)S(=O)(=O)c1ccc(N2CCCC2)c(C(=O)NNC(=O)COc2ccccc2F)c1`, the concentration at half-maximal activity (AC50) under setting [1] was 3.66 µM [rising, full curve, poor fit].

In the case of `Cc1ccc(O)c(NC(=S)NC(=O)c2ccccc2Cl)c1`, under setting [1], the half-maximal activity concentration (AC50) is 5.62 µM [falling, partial curve].

Take `CCc1ccc(OC(=O)/C=C/c2ccco2)cc1`: under setting [1], the AC50 was 35.5 µM [rising, single point].

Take `CN(C)c1c([N+](=O)[O-])cc2[nH]c(=O)[nH]c2c1[N+](=O)[O-]`: the concentration at half-maximal activity (AC50) under setting [1] is 13 µM [rising, single point].

As to `CSc1sc(C(=O)NNC(=O)c2ccc(Cl)cc2)c2c1C=CCC2`, under setting [1], the concentration at half-maximal activity (AC50) is 10 µM [falling, partial curve, poor fit].

Take `O=C(OCn1ncc(Cl)c(Cl)c1=O)c1cccc(C(F)(F)F)c1`: the AC50 under setting [1] is 5.62 µM [falling, full curve, poor fit].
